For at least one compound, name, drawing or mass did not settle the structure.
Key:
Type in all cases: cell-based, mouse
MEFs cells Pkd1^−/− = experiment: Acidification of culture medium / metabolic rates
Pkd1^−/− cells [1] = experiment: Real time analysis of glycolytic gene expression; details: rapamycin 20 nM, serum starvation
Pkd1^−/− MEFs [2] = experiment: Autophagosomes per cell by electron microscopy / autophagy; details: rapamycin; Pkd1 mutant cells
Experimental: Cell culture monolayers were fixed for 15 min at 4° C. with PAF 4% and 2.5% glutaraldehyde in 125 mM cacodylate buffer. The monolayers were detached by rubber and centrifuged at high speed. The pellet was post-fixed (1 hour) with 2% OsO4 in 125 mM cacodylate buffer, was washed, dehydrated and embedded in Epon. Conventional thin sections were collect on uncoated grids, stained with uranil and lead citrate and examined in a Leo912 electron microscope.

Pkd1^−/− MEFs [3] = experiment: Western blot of signalling phosphoproteins (pAMPK, pERK, pS6RP, pLKB1); details: rapamycin 20 nM for 4 h
Pkd1^−/− cells [4] = experiment: Cell death / survival under glucose starvation

CO[C@H]1C[C@@H]2CC[C@@H](C)[C@@](O)(O2)C(=O)C(=O)N2CCCC[C@H]2C(=O)O[C@H]([C@H](C)C[C@@H]2CC[C@@H](O)[C@H](OC)C2)CC(=O)[C@H](C)/C=C(\C)[C@@H](O)[C@@H](OC)C(=O)[C@H](C)C[C@H](C)/C=C/C=C/C=C/1C [rapamycin]
increased acidification of medium (MEFs cells Pkd1^−/−; rapamycin 50 nM for 48 h): restored
metabolic rates (MEFs cells Pkd1^−/−; rapamycin, Pkd1 mutant cells): down regulated
transcriptional signature of glycolytic enzymes (Pkd1^−/− cells [1]): sensitive
autophagy (Pkd1^−/− MEFs [2]): partially restored
phosphorylation of pAMPK (Pkd1^−/− MEFs [3]): increase
dying cells after glucose starvation (bright field images) (Pkd1^−/− cells [4]; rapamycin 20 nM, glucose-starved for 48 h): rescued this phenotype
cell survival under glucose deprivation (Pkd1^−/− cells [4]; rapamycin, Pkd1 mutant cells): partially restored
